# The full ranking holds about 1,500 compounds; the median of “activity” is about 2, and the lowest 2% start at about -18. This is one part of the list. Calls of active or inactive are those of the source.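 How the source made its calls: active means inhibition of at least 40% at 10 µM; inconclusive means no clear call, values can overlap the other calls; inactive means the rest.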
# Chains of the proteins cited; added tags and fusions are not shown. Lines headed by an entry give the natural chain unless they say otherwise; changes in a name come on top.
# UniProt O00391: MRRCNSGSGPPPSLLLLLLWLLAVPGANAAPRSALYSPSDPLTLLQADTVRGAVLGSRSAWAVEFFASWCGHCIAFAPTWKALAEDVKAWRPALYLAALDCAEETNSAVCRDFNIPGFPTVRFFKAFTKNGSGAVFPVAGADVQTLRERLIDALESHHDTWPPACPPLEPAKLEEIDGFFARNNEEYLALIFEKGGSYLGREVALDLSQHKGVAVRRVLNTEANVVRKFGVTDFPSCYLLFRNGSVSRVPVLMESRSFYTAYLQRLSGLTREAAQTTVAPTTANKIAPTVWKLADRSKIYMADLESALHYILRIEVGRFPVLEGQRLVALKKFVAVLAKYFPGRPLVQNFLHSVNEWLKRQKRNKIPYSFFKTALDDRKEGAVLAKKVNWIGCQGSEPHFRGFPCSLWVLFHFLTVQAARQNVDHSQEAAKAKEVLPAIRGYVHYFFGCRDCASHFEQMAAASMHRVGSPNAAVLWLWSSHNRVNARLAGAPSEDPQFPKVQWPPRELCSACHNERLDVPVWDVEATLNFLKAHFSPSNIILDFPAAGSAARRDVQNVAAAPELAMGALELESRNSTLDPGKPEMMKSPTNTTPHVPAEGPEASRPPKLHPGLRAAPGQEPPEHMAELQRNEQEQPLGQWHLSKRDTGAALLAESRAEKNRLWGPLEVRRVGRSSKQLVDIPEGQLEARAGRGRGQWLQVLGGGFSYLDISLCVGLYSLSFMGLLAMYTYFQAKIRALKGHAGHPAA
# Target: Sulfhydryl oxidase 1 (Homo sapiens) (UniProt O00391)
# Test: QSOX1 enzyme inhibitors, confirmation, biochemical, ROS-Glo luminescence, single concentration (AID 1347421);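 further: 0% = DMSO wells with enzyme and 100% = wells lacking QSOX1 enzyme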
# Settings: recombinant hQSOX1, RNase A substrate, ROS-Glo H2O2 luminescence; at 10 µM
row,SMILES,activity
1,CCc1ccc(CN(C)Cc2cccc(OCC(O)CN3CCC(O)CC3)c2)nc1 (stereo not drawn),6.3%
2,CC(C)c1ccc(NC2CCCN(C(=O)CCc3cnccn3)C2)cc1 (stereo not drawn),2.6%
3,NC(=O)C1CCCN(C(=O)Nc2ccc(F)cc2)C1 (stereo not drawn),inactive: -0.4%
4,CSc1nc(C(=O)N(C)C2CCCN(Cc3ccccc3F)C2)cs1 (stereo not drawn),5.1%
5,COc1cc(CNCc2ccc(C)o2)ccc1OCC(O)CN(C)C(C)C (stereo not drawn),9.7%
6,COc1cccc(NC(=O)CCC2CCN(C(=O)CCc3cnccn3)CC2)c1,inactive: -0.4%
7,CCCc1c(-c2n[nH]c3c2CN(C(=O)C(C)C)CC3)cnn1-c1ccccc1,inactive: -0.8%
8,CC(=O)c1cccc(OCc2cc(C(=O)N(CC3CC3)CC3CCCO3)no2)c1 (stereo not drawn),0.5%
9,Cn1nc(C(=O)N2CCc3[nH]nc(-c4ccc(Cl)cc4Cl)c3C2)ccc1=O,inactive: -0.2%
10,CC(C)=CCN1CCN(Cc2cn(C)nc2C)CC1CCO (stereo not drawn),5.5%
11,Cc1occc1C(=O)N1CCC2(CCCN(Cc3ccc(F)c(F)c3)C2=O)C1 (stereo not drawn),2.4%
12,O=C(c1cc(COc2ccc(F)cc2Cl)on1)N1CCN(c2cnccn2)CC1,4.5%
13,COc1cccc(C(=O)NC2CC(=O)N(Cc3ccc(F)cc3)C2)c1 (stereo not drawn),inactive: -1%
14,c1cncc(CNc2nc3nonc3nc2NCc2cccs2)c1,0.5%
15,NC(=O)C1(N2CCCCC2)CCN(C(=O)C2CCC(=O)N(C3CCCC3)C2)CC1 (stereo not drawn),5.6%
16,O=C(CCc1ccncc1)NC1CC(=O)N(Cc2ccccc2C(F)(F)F)C1 (stereo not drawn),0.3%
17,Cc1cc(CNC(=O)C2CCCN(C(N)=O)C2)c2[nH]c(C)c(C)c2c1 (stereo not drawn),inactive: -2.1%
18,COC(=O)c1ccc(Cn2ncc(N3CCc4ccccc4C3)cc2=O)o1,inactive: -4.1%
19,Cc1nc2cc(OCc3cc(C(=O)N(C)CCC4CCOCC4)no3)ccc2s1,0.2%
20,CCN(CC)CC(O)COc1ccc(CNCc2cnn(C)c2)cc1OC (stereo not drawn),7.4%
21,O=C(Nc1ccccc1)N1CCN(c2nsc3ccccc23)CC1,inactive: -22.1%
22,Cc1nccn1CCC(=O)N1CCCC(C(=O)c2ccc3c4c(cccc24)CC3)C1 (stereo not drawn),inactive: -4%
23,Cc1ncc(CN2CCOC(Cc3cccc(C(F)(F)F)c3)C2)n1C (stereo not drawn),inactive: -2.3%

row,SMILES,activity
1,CC(C)(CN1CCOCC1)CN1CCOC(CCc2ccccc2)C1 (stereo not drawn),4.6%
2,O=C(NC1CCCN(C2CCCCCC2)C1)c1ccc(=O)[nH]n1 (stereo not drawn),inactive: -1.5%
3,CCS(=O)(=O)c1ncc(CN(C)CCc2ccccn2)n1CCOC,9.1%
4,COc1ccc(C(C)N(C)Cc2nc(-c3ccc(OC)cc3OC)oc2C)cc1 (stereo not drawn),5.7%
5,CCNC(=O)N1CCOC(Cc2ccccc2Cl)C1 (stereo not drawn),3.9%
6,COC(=O)CCC(=O)N(C)CC1CCN(CCc2cccc(F)c2)CC1,4%
7,COc1ccc(-c2noc(CN3CCC(C)CC3)n2)cc1OC,inactive: -16%
8,COc1ccc(-c2ncc(CNC3CCCN(c4ncccn4)C3)cn2)cc1 (stereo not drawn),3.6%
9,COc1cccc(NC(=O)CCC2CCN(C(=O)CCn3cncn3)CC2)c1,inactive: -1%
10,CC#CCN(Cc1ccco1)C(=O)c1cn(CCN2CCCCC2)nn1,1.3%
11,COc1ccc(-c2nc(CN(CCO)Cc3cccs3)c(C)o2)c(OC)c1,inactive: -4.8%
12,CN(C)S(=O)(=O)c1ccc(CCC(=O)N2CCOCC2)cc1,1.9%
13,O=C(CC(c1ccccc1)c1ccc2c(c1)OCO2)N1CCSCC1 (stereo not drawn),0.2%
14,Cc1cc(C)n2nc(C(=O)N3CCC4(CCCN(CC(C)(C)C)C4)C3)cc2n1 (stereo not drawn),2.5%
15,CN(Cc1cccc(OCC(O)CN2CCCCCC2)c1)Cc1cnccn1 (stereo not drawn),0.6%
16,CC(=O)Nc1ccc(S(=O)(=O)N2CCN(C(=O)N3CCCCCC3)CC2)cc1,inactive: -1.3%
17,CC(C)(C)OC(=O)N1CCNC(=O)C1CC(=O)OCC1CCCO1 (stereo not drawn),1.5%
18,CCN(Cc1ccncc1)CC1CCCN(CCc2cccc(F)c2)C1 (stereo not drawn),inactive: -0.5%
19,CCC(=O)Nc1nonc1-c1nc2ccccc2n1C(C)C,8.8%
20,Cc1nc(CN(C)Cc2cn(C)nc2-c2cccc(Cl)c2)cs1,inactive: -3.9%
21,Cc1ccc2occ(CN3CCN(Cc4ccsc4)C(CCO)C3)c(=O)c2c1 (stereo not drawn),2.3%
22,O=C(CCC1CCN(Cc2cc(F)ccc2-n2cccn2)CC1)N1CCOCC1,7%
23,CN(CCC(O)c1ccccc1)C(=O)CCCn1nnnc1CN1CCOCC1 (stereo not drawn),2.6%

row,SMILES,activity
1,COc1ccccc1N1CCN(C2CCCN(C(=O)CCc3ccccc3)C2)CC1 (stereo not drawn),4%
2,COc1cc(C)c(Br)cc1S(=O)(=O)NCCN1CCOCC1,inactive: -7.7%
3,COc1cccc(CC2CN(C3CCSCC3)CCO2)c1 (stereo not drawn),10.9%
4,COC(=O)c1ccc(CN2CCC(CCC(=O)NCC3CCCO3)CC2)cc1 (stereo not drawn),inactive: -1.1%
5,Cc1ccc(C(=O)N2CCCCCC2)cc1S(=O)(=O)N1CCCCC1,inactive: -1%
6,Cc1nc2nc(C)c(CCC(C)C)c(=O)n2[nH]1,2.1%
7,Fc1ccc(C2(c3noc(-c4cn[nH]c4)n3)CCOC2)cc1 (stereo not drawn),2.1%
8,COc1ccccc1CN1CCCC(CN(CCN(C)C)C(=O)c2ccoc2)C1 (stereo not drawn),1.2%
9,Cc1occc1-c1nnc2sc(CCc3ccccc3)nn12,inactive: -18.1%
10,CC1(C)CC(NS(=O)(=O)c2cccc(F)c2)CC(C)(C)N1,inactive: -0.9%
11,Cc1csc(CNCC2(O)CCCN(CC3CC3)C2=O)n1 (stereo not drawn),inactive: -1.7%
12,Nc1ncnc(N2CCc3ccccc32)n1,5.6%
13,O=C1CCCCCN1CCC(=O)N1CCOC(CCc2ccccc2)C1 (stereo not drawn),3.4%
14,COCCOC1CCN(Cc2nc(-c3ccc(C(=O)OC)cc3)oc2C)CC1,15.7%
15,CN(C)Cc1ccc(C(=O)N2CCOC(CCc3ccccc3)C2)o1 (stereo not drawn),5.7%
16,CCc1nn(C)c(NC(=O)Cn2cc(-c3ncc(F)c(NC)n3)cn2)c1C,inactive: -0.7%
17,O=C(CCc1cn[nH]c1)N1CCOC(Cc2ccccc2Cl)C1 (stereo not drawn),inactive: -3.6%
18,CCN(CC)C(=O)n1nnc2ccccc21,inactive: -9.3%
19,CCCNC(=O)c1ccccc1NS(=O)(=O)Cc1ccccc1,inactive: -1%
20,NC(=O)COc1ccc(Br)cc1CO,inactive: -2.7%
21,COCC1CCCCN1Cc1nc(-c2ccccc2C)oc1C (stereo not drawn),inactive: -2.4%
22,CCCCn1nnnc1NCc1cccnc1,inactive: -5.4%

# Grouped by structure: the compounds so far with a tert-butyl group (2)
row,SMILES,activity
14,Cc1cc(C)n2nc(C(=O)N3CCC4(CCCN(CC(C)(C)C)C4)C3)cc2n1 (stereo not drawn),2.5%
17,CC(C)(C)OC(=O)N1CCNC(=O)C1CC(=O)OCC1CCCO1 (stereo not drawn),1.5%

# No new results follow: two of the compounds above.
row,SMILES,activity
21,O=C(Nc1ccccc1)N1CCN(c2nsc3ccccc23)CC1,inactive: -22.1%
22,Cc1nccn1CCC(=O)N1CCCC(C(=O)c2ccc3c4c(cccc24)CC3)C1 (stereo not drawn),inactive: -4%

# Reference: PubChem BioAssay AID1347421 (Sanford-Burnham Center for Chemical Genomics, 2020)
